Measured values as given in the supplement of paper PMC10849652.
This is one part of the list.

The chains behind the UniProt entries cited, without tags or fusion partners. Where a name states a change or a piece, a line headed by the entry shows the natural chain unless it says otherwise.
UniProt Q8WVK2: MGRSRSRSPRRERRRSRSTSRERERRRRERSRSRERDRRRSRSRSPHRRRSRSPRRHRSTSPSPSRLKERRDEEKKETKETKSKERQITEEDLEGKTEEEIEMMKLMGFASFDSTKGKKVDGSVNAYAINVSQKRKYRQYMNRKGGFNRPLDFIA
UniProt Q7KZF4: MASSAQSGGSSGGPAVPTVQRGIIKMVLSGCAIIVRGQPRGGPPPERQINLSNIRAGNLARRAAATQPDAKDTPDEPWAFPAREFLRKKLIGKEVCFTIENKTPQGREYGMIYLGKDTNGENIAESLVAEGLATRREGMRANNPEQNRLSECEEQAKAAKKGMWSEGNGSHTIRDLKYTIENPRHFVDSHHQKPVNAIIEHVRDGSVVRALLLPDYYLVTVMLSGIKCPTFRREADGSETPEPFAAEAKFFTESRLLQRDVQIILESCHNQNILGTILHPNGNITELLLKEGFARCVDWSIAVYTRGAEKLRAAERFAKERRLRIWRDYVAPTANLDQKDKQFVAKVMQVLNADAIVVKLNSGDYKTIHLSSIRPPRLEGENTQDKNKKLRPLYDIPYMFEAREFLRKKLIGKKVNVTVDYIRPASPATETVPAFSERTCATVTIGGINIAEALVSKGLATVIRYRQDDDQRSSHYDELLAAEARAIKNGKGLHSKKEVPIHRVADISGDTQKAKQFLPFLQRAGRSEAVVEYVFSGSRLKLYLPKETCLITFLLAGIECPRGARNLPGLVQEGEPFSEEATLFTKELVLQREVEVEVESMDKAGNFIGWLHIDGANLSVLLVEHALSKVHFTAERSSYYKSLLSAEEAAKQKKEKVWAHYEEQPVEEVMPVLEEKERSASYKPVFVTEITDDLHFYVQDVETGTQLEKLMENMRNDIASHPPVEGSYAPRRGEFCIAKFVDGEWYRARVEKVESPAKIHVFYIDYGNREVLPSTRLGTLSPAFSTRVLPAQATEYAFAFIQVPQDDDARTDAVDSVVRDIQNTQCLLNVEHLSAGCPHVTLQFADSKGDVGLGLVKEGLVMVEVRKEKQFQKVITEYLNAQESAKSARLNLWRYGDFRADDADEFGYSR
UniProt Q9Y5X2: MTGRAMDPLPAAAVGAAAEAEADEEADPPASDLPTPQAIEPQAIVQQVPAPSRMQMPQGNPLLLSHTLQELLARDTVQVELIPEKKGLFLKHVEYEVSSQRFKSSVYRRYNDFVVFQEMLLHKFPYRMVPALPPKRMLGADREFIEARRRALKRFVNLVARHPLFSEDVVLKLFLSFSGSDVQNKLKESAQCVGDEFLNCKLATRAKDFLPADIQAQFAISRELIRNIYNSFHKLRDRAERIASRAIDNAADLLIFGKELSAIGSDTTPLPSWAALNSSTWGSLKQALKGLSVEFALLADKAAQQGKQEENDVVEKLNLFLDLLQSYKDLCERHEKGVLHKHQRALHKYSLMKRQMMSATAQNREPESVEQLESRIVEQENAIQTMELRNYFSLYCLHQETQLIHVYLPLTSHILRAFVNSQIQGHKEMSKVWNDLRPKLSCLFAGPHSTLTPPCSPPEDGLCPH
UniProt Q96GM5, whole entry, looked up: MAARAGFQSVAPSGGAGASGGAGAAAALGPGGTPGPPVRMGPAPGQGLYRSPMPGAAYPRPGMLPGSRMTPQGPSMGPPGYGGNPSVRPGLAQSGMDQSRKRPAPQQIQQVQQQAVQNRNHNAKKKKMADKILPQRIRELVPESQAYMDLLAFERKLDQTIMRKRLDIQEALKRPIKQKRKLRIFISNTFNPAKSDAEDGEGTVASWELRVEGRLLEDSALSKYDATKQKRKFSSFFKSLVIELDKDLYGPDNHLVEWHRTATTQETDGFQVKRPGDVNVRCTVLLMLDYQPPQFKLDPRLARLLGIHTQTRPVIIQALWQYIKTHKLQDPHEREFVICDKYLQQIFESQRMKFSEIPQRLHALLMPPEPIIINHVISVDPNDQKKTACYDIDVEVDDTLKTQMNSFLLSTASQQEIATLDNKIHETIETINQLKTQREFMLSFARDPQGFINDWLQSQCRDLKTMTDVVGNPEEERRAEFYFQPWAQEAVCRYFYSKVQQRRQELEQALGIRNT
UniProt Q96Q15: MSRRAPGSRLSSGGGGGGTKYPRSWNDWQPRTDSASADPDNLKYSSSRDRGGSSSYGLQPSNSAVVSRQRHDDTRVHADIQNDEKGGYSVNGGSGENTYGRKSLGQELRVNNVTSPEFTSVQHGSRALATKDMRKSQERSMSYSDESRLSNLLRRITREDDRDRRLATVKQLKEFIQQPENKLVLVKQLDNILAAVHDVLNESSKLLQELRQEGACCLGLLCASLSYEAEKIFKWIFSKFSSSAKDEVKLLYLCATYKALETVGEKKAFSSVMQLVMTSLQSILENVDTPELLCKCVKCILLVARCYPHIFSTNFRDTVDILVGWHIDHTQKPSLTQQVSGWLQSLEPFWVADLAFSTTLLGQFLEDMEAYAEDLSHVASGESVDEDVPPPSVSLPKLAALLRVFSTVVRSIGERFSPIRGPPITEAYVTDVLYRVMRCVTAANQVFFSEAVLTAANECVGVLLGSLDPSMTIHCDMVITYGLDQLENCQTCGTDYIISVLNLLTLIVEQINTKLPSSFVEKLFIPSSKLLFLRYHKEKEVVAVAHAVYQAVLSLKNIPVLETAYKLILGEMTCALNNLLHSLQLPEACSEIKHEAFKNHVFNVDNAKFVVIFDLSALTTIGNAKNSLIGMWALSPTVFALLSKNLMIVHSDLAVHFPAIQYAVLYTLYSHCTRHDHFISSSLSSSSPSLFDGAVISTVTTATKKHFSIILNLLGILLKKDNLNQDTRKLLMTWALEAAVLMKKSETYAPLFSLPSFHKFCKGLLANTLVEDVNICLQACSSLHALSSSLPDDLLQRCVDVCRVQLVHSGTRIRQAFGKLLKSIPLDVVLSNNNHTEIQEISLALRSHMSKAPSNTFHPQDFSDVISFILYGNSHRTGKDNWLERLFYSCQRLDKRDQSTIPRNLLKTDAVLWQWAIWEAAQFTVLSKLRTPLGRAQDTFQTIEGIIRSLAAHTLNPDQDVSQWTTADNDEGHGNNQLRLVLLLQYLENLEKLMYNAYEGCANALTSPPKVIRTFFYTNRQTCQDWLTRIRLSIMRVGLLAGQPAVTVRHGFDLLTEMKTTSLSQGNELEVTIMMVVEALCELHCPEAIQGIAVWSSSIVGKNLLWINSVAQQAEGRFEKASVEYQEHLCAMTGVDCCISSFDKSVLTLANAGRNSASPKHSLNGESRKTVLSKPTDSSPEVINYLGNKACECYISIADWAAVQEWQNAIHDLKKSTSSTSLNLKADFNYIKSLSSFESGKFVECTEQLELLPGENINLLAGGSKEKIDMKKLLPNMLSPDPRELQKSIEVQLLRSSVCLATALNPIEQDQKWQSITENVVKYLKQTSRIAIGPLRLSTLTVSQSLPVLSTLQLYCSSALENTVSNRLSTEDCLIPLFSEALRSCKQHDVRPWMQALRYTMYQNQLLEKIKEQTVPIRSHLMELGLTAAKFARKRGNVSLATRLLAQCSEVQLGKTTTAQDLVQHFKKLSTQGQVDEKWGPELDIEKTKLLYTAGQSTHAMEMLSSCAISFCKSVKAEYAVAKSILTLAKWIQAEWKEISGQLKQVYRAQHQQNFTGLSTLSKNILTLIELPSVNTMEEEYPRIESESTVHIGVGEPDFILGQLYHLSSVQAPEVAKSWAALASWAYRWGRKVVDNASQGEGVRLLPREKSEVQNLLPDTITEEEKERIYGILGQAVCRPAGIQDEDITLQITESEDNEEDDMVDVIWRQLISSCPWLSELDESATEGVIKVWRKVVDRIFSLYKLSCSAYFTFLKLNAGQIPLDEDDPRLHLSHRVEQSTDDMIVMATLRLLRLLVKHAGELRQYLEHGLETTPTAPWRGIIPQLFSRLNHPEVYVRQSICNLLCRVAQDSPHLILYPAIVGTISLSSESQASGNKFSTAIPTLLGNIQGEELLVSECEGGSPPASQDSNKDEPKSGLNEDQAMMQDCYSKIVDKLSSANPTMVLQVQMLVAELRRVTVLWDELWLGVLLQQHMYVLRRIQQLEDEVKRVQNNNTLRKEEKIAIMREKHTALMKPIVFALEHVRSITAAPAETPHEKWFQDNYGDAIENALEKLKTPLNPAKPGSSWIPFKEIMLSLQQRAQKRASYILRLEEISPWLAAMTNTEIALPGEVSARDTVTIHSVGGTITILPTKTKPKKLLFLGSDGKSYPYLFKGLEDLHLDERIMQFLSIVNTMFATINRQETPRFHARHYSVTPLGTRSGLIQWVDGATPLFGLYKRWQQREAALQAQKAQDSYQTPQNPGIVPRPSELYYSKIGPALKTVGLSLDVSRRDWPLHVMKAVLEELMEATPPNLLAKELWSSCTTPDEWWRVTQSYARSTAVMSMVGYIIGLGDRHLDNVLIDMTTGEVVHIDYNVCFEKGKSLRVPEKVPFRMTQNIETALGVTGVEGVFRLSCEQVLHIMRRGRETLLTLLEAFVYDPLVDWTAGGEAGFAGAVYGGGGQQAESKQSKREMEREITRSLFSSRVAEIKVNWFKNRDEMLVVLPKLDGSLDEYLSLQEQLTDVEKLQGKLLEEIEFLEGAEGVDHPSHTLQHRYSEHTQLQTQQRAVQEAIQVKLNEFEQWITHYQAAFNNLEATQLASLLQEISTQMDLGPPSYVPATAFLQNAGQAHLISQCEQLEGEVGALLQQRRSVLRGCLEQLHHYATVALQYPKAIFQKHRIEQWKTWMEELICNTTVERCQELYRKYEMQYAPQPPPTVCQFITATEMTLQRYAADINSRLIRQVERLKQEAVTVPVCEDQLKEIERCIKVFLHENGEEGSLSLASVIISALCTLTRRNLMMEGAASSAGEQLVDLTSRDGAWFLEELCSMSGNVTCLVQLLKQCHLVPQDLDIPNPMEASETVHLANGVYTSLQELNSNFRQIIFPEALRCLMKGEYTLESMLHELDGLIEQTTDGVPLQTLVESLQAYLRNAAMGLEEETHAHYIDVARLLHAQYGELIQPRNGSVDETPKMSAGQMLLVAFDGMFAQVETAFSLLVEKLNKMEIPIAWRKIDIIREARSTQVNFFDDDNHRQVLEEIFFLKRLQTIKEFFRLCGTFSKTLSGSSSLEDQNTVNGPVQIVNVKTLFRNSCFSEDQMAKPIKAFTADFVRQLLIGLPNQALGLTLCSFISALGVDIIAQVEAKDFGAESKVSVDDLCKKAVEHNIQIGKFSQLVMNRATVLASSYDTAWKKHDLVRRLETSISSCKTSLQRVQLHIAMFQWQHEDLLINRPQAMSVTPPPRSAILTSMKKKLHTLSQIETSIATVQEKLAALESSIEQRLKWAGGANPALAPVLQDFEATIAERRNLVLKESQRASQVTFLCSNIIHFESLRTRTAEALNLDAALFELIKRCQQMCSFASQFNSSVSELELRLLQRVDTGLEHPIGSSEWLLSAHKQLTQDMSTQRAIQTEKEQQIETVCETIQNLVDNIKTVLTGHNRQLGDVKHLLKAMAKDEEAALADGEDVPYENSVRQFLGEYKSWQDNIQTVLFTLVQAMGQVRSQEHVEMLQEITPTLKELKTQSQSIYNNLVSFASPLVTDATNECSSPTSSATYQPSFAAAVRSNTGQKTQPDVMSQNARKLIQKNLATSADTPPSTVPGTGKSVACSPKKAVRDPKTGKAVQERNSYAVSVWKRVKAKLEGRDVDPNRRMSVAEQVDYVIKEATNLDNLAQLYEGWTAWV
UniProt O00161: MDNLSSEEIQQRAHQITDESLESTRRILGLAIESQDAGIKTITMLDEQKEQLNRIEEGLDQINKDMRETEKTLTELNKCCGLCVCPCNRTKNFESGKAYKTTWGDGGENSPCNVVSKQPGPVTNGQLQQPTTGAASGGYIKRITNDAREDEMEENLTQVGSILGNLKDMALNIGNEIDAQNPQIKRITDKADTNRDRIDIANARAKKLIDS
UniProt O60504: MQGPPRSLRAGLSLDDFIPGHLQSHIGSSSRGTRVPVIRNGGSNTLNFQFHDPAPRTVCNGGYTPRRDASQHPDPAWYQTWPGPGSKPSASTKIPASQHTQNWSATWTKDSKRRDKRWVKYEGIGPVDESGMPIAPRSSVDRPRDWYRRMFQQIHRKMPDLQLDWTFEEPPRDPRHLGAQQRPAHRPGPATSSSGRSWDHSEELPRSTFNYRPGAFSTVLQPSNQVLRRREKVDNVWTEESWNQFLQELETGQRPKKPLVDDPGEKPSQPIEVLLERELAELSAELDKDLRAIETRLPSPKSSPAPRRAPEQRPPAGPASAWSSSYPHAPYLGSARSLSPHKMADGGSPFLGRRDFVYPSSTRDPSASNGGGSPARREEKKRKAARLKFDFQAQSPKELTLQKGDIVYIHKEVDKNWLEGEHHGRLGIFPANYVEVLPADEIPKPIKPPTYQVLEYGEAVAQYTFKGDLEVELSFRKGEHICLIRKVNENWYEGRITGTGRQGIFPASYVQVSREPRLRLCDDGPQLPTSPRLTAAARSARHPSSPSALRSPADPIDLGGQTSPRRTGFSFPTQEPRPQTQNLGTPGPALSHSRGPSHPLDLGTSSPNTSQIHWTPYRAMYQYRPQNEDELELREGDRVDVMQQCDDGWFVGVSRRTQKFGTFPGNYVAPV

Tests used:
Experiment in all cases: log2 fold change, soluble protein after heating vs DMSO (PISA); higher = thermal stabilisation; K562 lysate, 10 uM; active = over 0.2 and 3.5 SD of the protein, either way, in both replicates (recomputed)
lapatinib = compound: CS(=O)(=O)CCNCc1ccc(-c2ccc3ncnc(Nc4ccc(OCc5cccc(F)c5)c(Cl)c4)c3c2)o1 [lapatinib]
Summary of the method: (§1)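 Quantification was by TMTpro 16plex LC-MS/MS with equalised channel sums, applied to the supernatant after 21,000xg for 90 min. Samples were crude K562 extract at 1 mg/mL protein in PBS pH 7.4 with 1 mM MgCl2, treated with 10 μM compound for 30 min, heated for 3 min across 48°C-58°C, pooled and brought to 0.5% NP-40 at 4°C. Values are log-two fold changes in thermal stability relative to solvent controls, from duplicates.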

pictilisib = compound: CS(=O)(=O)N1CCN(Cc2cc3nc(-c4cccc5[nH]ncc45)nc(N4CCOCC4)c3s2)CC1 [pictilisib]
Summary of the method: as §1

crizotinib = compound: C[C@@H](Oc1cc(-c2cnn(C3CCNCC3)c2)cnc1N)c1c(Cl)ccc(F)c1Cl [crizotinib]
Summary of the method: as §1

[1] = compound: C[C@H](C1=CC=C(C=C1)C(=O)NC2=C3C=CNC3=NC=C2)N
Summary of the method: as §1

duvelisib = compound: C[C@H](Nc1ncnc2nc[nH]c12)c1cc2cccc(Cl)c2c(=O)n1-c1ccccc1 [duvelisib]
Summary of the method: as §1

gandotinib = compound: Cc1cc(Nc2cc(CN3CCOCC3)c3nc(C)c(Cc4ccc(Cl)cc4F)n3n2)n[nH]1 [gandotinib]
Summary of the method: as §1

tozasertib = compound: Cc1cc(Nc2cc(N3CCN(C)CC3)nc(Sc3ccc(NC(=O)C4CC4)cc3)n2)n[nH]1 [tozasertib]
Summary of the method: as §1

doramapimod = compound: Cc1ccc(-n2nc(C(C)(C)C)cc2NC(=O)Nc2ccc(OCCN3CCOCC3)c3ccccc23)cc1 [doramapimod]
Summary of the method: as §1

bafetinib = compound: Cc1ccc(NC(=O)c2ccc(CN3CC[C@H](N(C)C)C3)c(C(F)(F)F)c2)cc1Nc1nccc(-c2cncnc2)n1 [bafetinib]
Summary of the method: as §1

[2] = compound: Cc1cccc(CC(=O)N2CCc3c2ccc(-c2cn(C)c4ncnc(N)c24)c3F)n1
Summary of the method: as §1

nilotinib = compound: Cc1cn(-c2cc(NC(=O)c3ccc(C)c(Nc4nccc(-c5cccnc5)n4)c3)cc(C(F)(F)F)c2)cn1 [nilotinib]
Summary of the method: as §1

[3] = compound: Cc1nc(Nc2n[nH]c3c2CN(C(=O)N[C@H](CN(C)C)c2ccccc2)C3(C)C)c2sccc2n1
Summary of the method: as §1

dasatinib = compound: Cc1nc(Nc2ncc(C(=O)Nc3c(C)cccc3Cl)s2)cc(N2CCN(CCO)CC2)n1 [dasatinib]
Summary of the method: as §1

[4] = compound: Cc1ncc(-c2ccnc(Nc3ccc(S(C)(=O)=O)cc3)n2)n1C(C)C
Summary of the method: as §1

[5] = compound: Cn1cc(-c2ccc3c(c2)CCN3C(=O)Cc2cccc(C(F)(F)F)c2)c2c(N)ncnc21
Summary of the method: as §1

quisinostat = compound: Cn1cc(CNCC2CCN(c3ncc(C(=O)NO)cn3)CC2)c2ccccc21 [quisinostat]
Summary of the method: as §1

tipifarnib = compound: Cn1cncc1[C@@](N)(c1ccc(Cl)cc1)c1ccc2c(c1)c(-c1cccc(Cl)c1)cc(=O)n2C [tipifarnib]
Summary of the method: as §1

[6] = compound: NC(=O)Nc1cc(-c2cccc(F)c2)sc1C(=O)N[C@H]1CCCNC1
Summary of the method: as §1

[7] = compound: NC(=O)c1cnc(N[C@@H]2CCCC[C@@H]2N)nc1Nc1cccc(-n2nccn2)c1
Summary of the method: as §1

[8] = compound: NC1(c2ccc(-c3nc4ccn5c(=O)[nH]nc5c4cc3-c3ccccc3)cc2)CCC1
Summary of the method: as §1

Measured: log2 fold change

SNRNP27 (UniProt Q8WVK2)
inactive: lapatinib -0.006 | pictilisib 0 | crizotinib -0.069 | [1] 0.026 | duvelisib 0.015 | gandotinib -0.022 | tozasertib -0.002 | doramapimod 0.077 | bafetinib 0.1 | [2] -0.067 | nilotinib -0.012 | [3] -0.007 | dasatinib 0.009 | [4] 0.007 | [5] 0.079 | quisinostat -0.139 | tipifarnib 0.032 | [6] 0.033 | [7] -0.007 | [8] 0.017

SNX3 (UniProt O60493)
inactive: lapatinib 0.007 | pictilisib -0.01 | crizotinib 0.018 | [1] -0.023 | duvelisib 0.013 | gandotinib -0.02 | tozasertib 0.005 | doramapimod -0.005 | bafetinib -0.006 | [2] 0.003 | nilotinib -0.014 | [3] 0.007 | dasatinib -0.017 | [4] -0.012 | [5] 0.023 | quisinostat 0.033 | tipifarnib 0.011 | [6] -0.001 | [7] 0.014 | [8] 0.071

SORD (UniProt Q00796)
inactive: lapatinib -0.022 | pictilisib -0.024 | crizotinib 0.011 | [1] -0.067 | duvelisib 0.019 | gandotinib 0.062 | tozasertib 0.011 | doramapimod 0.011 | bafetinib 0.031 | [2] 0.018 | nilotinib 0.025 | [3] -0.007 | dasatinib -0.019 | [4] 0.01 | [5] 0.004 | quisinostat -0.031 | tipifarnib -0.005 | [6] -0.002 | [7] -0.014 | [8] 0.033

SND1 (UniProt Q7KZF4)
inactive: lapatinib -0.008 | pictilisib -0.012 | crizotinib -0.034 | [1] 0.077 | duvelisib 0.008 | gandotinib -0.108 | tozasertib 0 | doramapimod 0.034 | bafetinib -0.028 | [2] -0.009 | nilotinib -0.008 | [3] -0.011 | dasatinib -0.028 | [4] -0.024 | [5] 0.038 | quisinostat -0.033 | tipifarnib -0.003 | [6] 0.05 | [7] -0.007 | [8] -0.017

SNX8 (UniProt Q9Y5X2)
inactive: lapatinib 0.006 | pictilisib -0.004 | crizotinib -0.007 | [1] -0.029 | duvelisib 0.016 | gandotinib 0.031 | tozasertib 0.027 | doramapimod -0.015 | bafetinib -0.035 | [2] 0.034 | nilotinib 0.038 | [3] -0.016 | dasatinib 0.022 | [4] 0.012 | [5] 0.012 | quisinostat -0.071 | tipifarnib 0.023 | [6] 0.039 | [7] 0.003 | [8] -0.012

SNX12 isoform 1 (UniProt Q9UMY4)
inactive: lapatinib 0.03 | pictilisib 0.002 | crizotinib 0.029 | [1] 0.027 | duvelisib 0.024 | gandotinib -0.038 | tozasertib 0.034 | doramapimod 0.023 | bafetinib 0.006 | [2] -0.044 | nilotinib -0.003 | [3] 0.006 | dasatinib 0.021 | [4] -0.017 | [5] -0.026 | quisinostat 0.078 | tipifarnib 0.034 | [6] -0.04 | [7] 0.003 | [8] 0.028

SNTA1 (UniProt Q13424)
inactive: lapatinib -0.098 | pictilisib -0.001 | crizotinib -0.091 | [1] -0.085 | duvelisib 0.043 | gandotinib 0.035 | tozasertib -0.032 | doramapimod 0.041 | bafetinib -0.06 | [2] -0.038 | nilotinib -0.001 | [3] 0.002 | dasatinib -0.09 | [4] -0.03 | [5] -0.104 | quisinostat -0.09 | tipifarnib 0.08 | [6] 0.016 | [7] 0.084 | [8] -0.002

SMCHD1 (UniProt A6NHR9)
inactive: lapatinib -0.034 | pictilisib -0.01 | crizotinib -0.041 | [1] -0.077 | duvelisib 0.017 | gandotinib 0.031 | tozasertib 0.034 | doramapimod 0.036 | bafetinib 0.003 | [2] 0.028 | nilotinib 0.011 | [3] -0.04 | dasatinib -0.005 | [4] -0.029 | [5] 0.058 | quisinostat -0.062 | tipifarnib 0.018 | [6] 0.072 | [7] 0.024 | [8] -0.004

SNX6, A0A0A0MRI2
inactive: lapatinib -0.008 | pictilisib 0.018 | crizotinib -0.062 | [1] 0.2 | duvelisib 0.003 | gandotinib -0.134 | tozasertib 0.022 | doramapimod -0.012 | bafetinib -0.04 | [2] -0.088 | nilotinib -0.021 | [3] 0.009 | dasatinib 0.003 | [4] 0.03 | [5] 0.027 | quisinostat -0.003 | tipifarnib 0.007 | [6] -0.015 | [7] 0.016 | [8] 0.016

SMARCD1 (UniProt Q96GM5)
inactive: lapatinib -0.025 | pictilisib -0.025 | crizotinib 0.111 | [1] -0.019 | duvelisib 0.074 | gandotinib -0.036 | tozasertib 0.038 | doramapimod -0.095 | bafetinib -0.058 | [2] -0.016 | nilotinib 0.025 | [3] -0.012 | dasatinib -0.029 | [4] -0.026 | [5] -0.027 | quisinostat 0.043 | tipifarnib 0.025 | [6] 0.017 | [7] 0.03 | [8] -0.032

Two entries drawn at random from those above:
SNX12 isoform 1 (UniProt Q9UMY4)
inactive: lapatinib 0.03 | pictilisib 0.002 | crizotinib 0.029 | [1] 0.027 | duvelisib 0.024 | gandotinib -0.038 | tozasertib 0.034 | doramapimod 0.023 | bafetinib 0.006 | [2] -0.044 | nilotinib -0.003 | [3] 0.006 | dasatinib 0.021 | [4] -0.017 | [5] -0.026 | quisinostat 0.078 | tipifarnib 0.034 | [6] -0.04 | [7] 0.003 | [8] 0.028

SNTA1 (UniProt Q13424)
inactive: lapatinib -0.098 | pictilisib -0.001 | crizotinib -0.091 | [1] -0.085 | duvelisib 0.043 | gandotinib 0.035 | tozasertib -0.032 | doramapimod 0.041 | bafetinib -0.06 | [2] -0.038 | nilotinib -0.001 | [3] 0.002 | dasatinib -0.09 | [4] -0.03 | [5] -0.104 | quisinostat -0.09 | tipifarnib 0.08 | [6] 0.016 | [7] 0.084 | [8] -0.002

Next part

SMU1 (UniProt Q2TAY7)
inactive: lapatinib 0.026 | pictilisib 0.002 | crizotinib -0.015 | [1] -0.012 | duvelisib 0.003 | gandotinib 0.012 | tozasertib -0.01 | doramapimod 0.042 | bafetinib -0.021 | [2] -0.017 | nilotinib 0.003 | [3] -0.023 | dasatinib -0.001 | [4] -0.015 | [5] 0.009 | quisinostat -0.014 | tipifarnib -0.032 | [6] -0.003 | [7] -0.005 | [8] 0.031

SMG1 (UniProt Q96Q15)
inactive: lapatinib -0.025 | pictilisib -0.05 | crizotinib -0.019 | [1] 0.002 | duvelisib 0.003 | gandotinib -0.105 | tozasertib 0.024 | doramapimod 0.015 | bafetinib -0.057 | [2] 0.049 | nilotinib -0.029 | [3] 0.026 | dasatinib -0.021 | [4] 0.038 | [5] 0.006 | quisinostat -0.05 | tipifarnib -0.028 | [6] 0.061 | [7] 0 | [8] -0.032

SNAP23 (UniProt O00161)
inactive: lapatinib 0.005 | pictilisib -0.035 | crizotinib 0.067 | [1] 0.034 | duvelisib -0.004 | gandotinib 0.007 | tozasertib 0.005 | doramapimod 0.002 | bafetinib 0.059 | [2] -0.05 | nilotinib 0.001 | [3] 0.015 | dasatinib 0.045 | [4] -0.013 | [5] 0 | quisinostat 0.035 | tipifarnib 0.036 | [6] -0.019 | [7] -0.016 | [8] 0.031

SORBS3 (UniProt O60504)
inactive: lapatinib 0.072 | pictilisib 0.007 | crizotinib -0.002 | [1] 0.006 | duvelisib -0.127 | gandotinib 0.024 | tozasertib -0.012 | doramapimod -0.019 | bafetinib -0.032 | [2] 0.025 | dasatinib 0.005 | [5] -0.019 | quisinostat -0.088 | [6] 0.022 | [7] 0.036 | [8] -0.019

SMARCAL1 (UniProt Q9NZC9)
inactive: lapatinib -0.159 | pictilisib -0.271 | crizotinib -0.021 | [1] 0.07 | duvelisib 0.08 | gandotinib -0.175 | tozasertib 0.111 | doramapimod 0.048 | bafetinib -0.372 | [2] -0.224 | nilotinib -0.019 | [3] -0.013 | dasatinib -0.006 | [4] 0.007 | [5] -0.069 | quisinostat 0.03 | tipifarnib -0.012 | [6] 0.048 | [7] 0.026 | [8] -0.115

SNRNP70 (UniProt P08621)
inactive: lapatinib -0.023 | pictilisib 0.005 | crizotinib 0.013 | [1] -0.004 | duvelisib -0.009 | gandotinib -0.005 | tozasertib -0.01 | doramapimod 0.003 | bafetinib -0.035 | [2] -0.002 | nilotinib 0.001 | [3] -0.001 | dasatinib 0.015 | [4] -0.019 | [5] 0.004 | quisinostat 0.026 | tipifarnib 0 | [6] -0.017 | [7] -0.004 | [8] -0.007
